What all share (experiment): pull-down; HaloTag bait fusion (in vitro translated) mixed with [35S]-methionine labeled prey (in vitro translated) for 1 h at RT; captured on HaloLink resin for 90 min at 4°C in 100 mM Tris pH 7.6, 150 mM NaCl, 0.05% IGEPAL; washed with buffer containing 1 mg/ml BSA; 12% SDS-PAGE; TNT mix without bait as negative control
For assay [1], the target named is T1, BORIS (Brother of the Regulator of Imprinted Sites), HaloTag bait fusion protein (UniProt Q8NI51).
T1 sequence: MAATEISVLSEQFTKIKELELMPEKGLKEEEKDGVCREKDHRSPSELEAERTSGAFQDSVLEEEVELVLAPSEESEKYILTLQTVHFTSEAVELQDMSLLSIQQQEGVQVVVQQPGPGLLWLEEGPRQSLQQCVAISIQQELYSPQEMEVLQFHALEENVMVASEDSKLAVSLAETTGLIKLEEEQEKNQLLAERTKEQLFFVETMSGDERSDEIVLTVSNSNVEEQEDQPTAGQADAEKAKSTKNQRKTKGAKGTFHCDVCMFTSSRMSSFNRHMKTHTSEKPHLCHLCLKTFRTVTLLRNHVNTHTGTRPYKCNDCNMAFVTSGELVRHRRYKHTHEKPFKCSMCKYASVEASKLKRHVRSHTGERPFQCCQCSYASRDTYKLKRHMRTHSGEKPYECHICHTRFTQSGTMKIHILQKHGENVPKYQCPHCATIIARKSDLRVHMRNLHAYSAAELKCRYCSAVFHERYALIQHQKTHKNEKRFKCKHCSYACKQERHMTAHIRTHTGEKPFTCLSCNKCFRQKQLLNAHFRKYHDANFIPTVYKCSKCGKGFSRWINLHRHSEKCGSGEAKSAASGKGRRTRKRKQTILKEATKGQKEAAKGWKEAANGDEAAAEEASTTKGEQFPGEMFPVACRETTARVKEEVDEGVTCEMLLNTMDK

Protein sequences, listed by entry. Tags and fused reporters are not part of them.
UniProt P08047: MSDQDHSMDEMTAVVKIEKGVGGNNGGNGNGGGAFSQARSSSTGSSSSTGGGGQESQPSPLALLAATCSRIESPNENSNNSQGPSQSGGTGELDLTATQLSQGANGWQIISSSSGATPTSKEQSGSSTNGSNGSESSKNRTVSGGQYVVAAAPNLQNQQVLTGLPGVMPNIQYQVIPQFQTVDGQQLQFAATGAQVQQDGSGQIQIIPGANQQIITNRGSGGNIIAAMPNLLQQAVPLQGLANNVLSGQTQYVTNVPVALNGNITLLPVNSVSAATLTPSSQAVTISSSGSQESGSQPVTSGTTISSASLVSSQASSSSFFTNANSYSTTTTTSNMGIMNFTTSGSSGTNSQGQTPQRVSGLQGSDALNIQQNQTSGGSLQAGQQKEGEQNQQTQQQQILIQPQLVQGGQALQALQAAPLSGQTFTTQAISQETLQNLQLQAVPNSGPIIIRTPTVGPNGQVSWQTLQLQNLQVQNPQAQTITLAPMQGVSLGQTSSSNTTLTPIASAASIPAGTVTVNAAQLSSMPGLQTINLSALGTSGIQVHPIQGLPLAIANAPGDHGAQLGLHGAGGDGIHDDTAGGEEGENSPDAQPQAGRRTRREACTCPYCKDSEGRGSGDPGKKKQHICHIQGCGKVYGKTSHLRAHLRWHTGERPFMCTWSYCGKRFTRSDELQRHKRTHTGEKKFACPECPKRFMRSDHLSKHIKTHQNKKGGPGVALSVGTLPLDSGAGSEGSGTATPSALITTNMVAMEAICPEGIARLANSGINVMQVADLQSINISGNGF
UniProt P20226: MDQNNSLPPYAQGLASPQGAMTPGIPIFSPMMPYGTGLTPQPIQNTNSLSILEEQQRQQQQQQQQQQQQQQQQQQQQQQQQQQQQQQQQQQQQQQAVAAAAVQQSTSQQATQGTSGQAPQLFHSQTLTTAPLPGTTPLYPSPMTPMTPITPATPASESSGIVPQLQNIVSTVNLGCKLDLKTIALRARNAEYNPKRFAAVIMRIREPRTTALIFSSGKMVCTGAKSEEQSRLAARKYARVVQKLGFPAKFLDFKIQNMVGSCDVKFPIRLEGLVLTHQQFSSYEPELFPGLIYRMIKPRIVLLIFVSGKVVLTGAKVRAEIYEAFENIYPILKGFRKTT

In assay [2] the target is T2, MBD1v1, HaloTag bait fusion protein (UniProt Q9UIS9).
T2 sequence: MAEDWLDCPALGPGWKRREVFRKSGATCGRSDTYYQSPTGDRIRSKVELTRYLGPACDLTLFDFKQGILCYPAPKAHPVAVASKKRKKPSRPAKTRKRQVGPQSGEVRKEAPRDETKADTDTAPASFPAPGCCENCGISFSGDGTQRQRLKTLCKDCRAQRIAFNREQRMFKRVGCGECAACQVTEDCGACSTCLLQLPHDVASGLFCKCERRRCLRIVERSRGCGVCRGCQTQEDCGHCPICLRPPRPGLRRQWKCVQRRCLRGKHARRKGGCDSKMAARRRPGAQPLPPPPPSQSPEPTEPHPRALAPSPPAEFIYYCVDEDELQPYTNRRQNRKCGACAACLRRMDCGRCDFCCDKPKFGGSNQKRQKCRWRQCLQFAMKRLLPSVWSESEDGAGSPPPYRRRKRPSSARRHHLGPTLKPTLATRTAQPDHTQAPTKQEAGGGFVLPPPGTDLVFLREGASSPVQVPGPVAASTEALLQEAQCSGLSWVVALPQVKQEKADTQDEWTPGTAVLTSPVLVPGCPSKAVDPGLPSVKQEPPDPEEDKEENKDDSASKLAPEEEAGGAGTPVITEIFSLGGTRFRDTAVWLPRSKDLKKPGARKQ

The target in assay [3] is T3, Ets-1, HaloTag bait fusion protein (UniProt P14921).
T3 sequence: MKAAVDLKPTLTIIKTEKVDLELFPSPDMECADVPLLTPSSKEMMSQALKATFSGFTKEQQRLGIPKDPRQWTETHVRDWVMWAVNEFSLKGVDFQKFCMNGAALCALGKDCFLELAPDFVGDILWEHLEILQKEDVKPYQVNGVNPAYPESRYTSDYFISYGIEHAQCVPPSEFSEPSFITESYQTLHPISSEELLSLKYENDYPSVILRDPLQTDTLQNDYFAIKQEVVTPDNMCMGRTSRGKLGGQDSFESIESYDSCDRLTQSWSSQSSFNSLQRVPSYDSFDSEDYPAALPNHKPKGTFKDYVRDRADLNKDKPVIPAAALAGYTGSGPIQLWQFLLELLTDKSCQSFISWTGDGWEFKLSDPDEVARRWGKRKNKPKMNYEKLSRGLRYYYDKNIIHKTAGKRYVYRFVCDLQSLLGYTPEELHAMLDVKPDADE

Assay [4] concerns the target Sp1, HaloTag bait fusion protein (UniProt P08047).

These are yes or no findings as the source states them, for the method shown. Binding seen in cells or lysates may run through a third protein. Some results given as binding are weak or reduced against the parent protein; the word gives no strength. For part of these data: Sequences can lack the tags named with a protein.

“Sp1, [35S]-L-methionine labeled prey protein (from UniProt P08047 1-785)”: the values for the binding result in assay [1], in assay [2] and in assay [3] were “binds weakly”, “binds weakly” and “binds”, respectively.
With “human TATA binding protein (hTBP), full length, [35S]-L-methionine labeled prey protein (from UniProt P20226 1-339)”, the binding entry in assay [1], in assay [3] and in assay [4] was “binds” throughout.

The record behind these values is publication PMC4230356.
